Laboratory results reported in patent US20220033784A1 (priority 2020, published 2022).

Columns and labels:
[1] = Number of N-glycans by mass spectrometry; assay type: physicochemical; conditions: for Mass Spectrometry IL-2 N-Glycan: glycans attributed to the fused IL-2; for Mass Spectrometry Total N-Glycan: includes the 2 Asn297 glycans of the Fc domain
[2] = Glycosylation of introduced sites, microfluidic electrophoresis after PNGase F; assay type: physicochemical; conditions: for Microfluidic Electrophoresis Site 1 (%): glycosylation of first listed potential glycosylation site; for Microfluidic Electrophoresis Site 2 (%): glycosylation of second listed site, partial occupancy of dual glycokines assigned based on single site occupancy results

Molecule | Mass Spectrometry IL-2 N-Glycan [1] | Mass Spectrometry Total N-Glycan [1] | Microfluidic Electrophoresis Site 1 (%) [2] [%] | Microfluidic Electrophoresis Site 2 (%) [2] [%]
Fc-IL2-E62N:K64T | 0 | 2 | 0 | 
Fc-IL2-E68N:L70T | 0 | 2 | 0 | 
Fc-IL2-F42N:F44T | 0 | 2 | 0 | 
Fc-IL2-K35N |  |  | 31 | 
Fc-IL2-K43N:Y45T | 1 | 3 | >99 | 
Fc-IL2-L72N:Q74T | 1 | 3 | 94 | 
Fc-IL2-R38N:L40T | 1 | 3 | >99 | 
Fc-IL2-T41N:K43T | 1 | 3 | >99 | 
Fc-IL2-K35N-T41N:K43T (protein) APTSSSTKKTQLQLEHLLLDLQMILNGINNYKNPNLTRMLNFTFYMPKKATELKHLQCLEEELKPLEEVLNLAQSKNFHLRPRDLISNINVIVLELKGSETTFMCEYADETATIVEFLNRWITFCQSIISTLT |  |  | 38 | >99
Fc-IL2-T41N:K43T-E62N:K64T (protein) APTSSSTKKTQLQLEHLLLDLQMILNGINNYKNPKLTRMLNFTFYMPKKATELKHLQCLEENLTPLEEVLNLAQSKNFHLRPRDLISNINVIVLELKGSETTFMCEYADETATIVEFLNRWITFCQSIISTLT | 1 | 3 | >99 | 0
Fc-IL2-R38N:L40T-L72N:Q74T (protein) APTSSSTKKTQLQLEHLLLDLQMILNGINNYKNPKLTNMTTFKFYMPKKATELKHLQCLEEELKPLEEVLNNATSKNFHLRPRDLISNINVIVLELKGSETTFMCEYADETATIVEFLNRWITFCQSIISTLT | 2 | 4 | >99 | >99
Fc-IL2-R38N:L40T-E62N:K64T (protein) APTSSSTKKTQLQLEHLLLDLQMILNGINNYKNPKLTNMTTFKFYMPKKATELKHLQCLEENLTPLEEVLNLAQSKNFHLRPRDLISNINVIVLELKGSETTFMCEYADETATIVEFLNRWITFCQSIISTLT | 1 | 3 | >99 | 0
Fc-IL2-R38N:L40T-K43N:Y45T (protein) APTSSSTKKTQLQLEHLLLDLQMILNGINNYKNPKLTNMTTFNFTMPKKATELKHLQCLEEELKPLEEVLNLAQSKNFHLRPRDLISNINVIVLELKGSETTFMCEYADETATIVEFLNRWITFCQSIISTLT | 2 | 4 | >99 | >99
Fc-IL2-K43N:Y45T-L72N:Q74T (protein) APTSSSTKKTQLQLEHLLLDLQMILNGINNYKNPKLTRMLTFNFTMPKKATELKHLQCLEEELKPLEEVLNNATSKNFHLRPRDLISNINVIVLELKGSETTFMCEYADETATIVEFLNRWITFCQSIISTLT | 2 | 4 | >99 | >99
Fc-IL2-K43N:Y45T-E62N:K64T (protein) APTSSSTKKTQLQLEHLLLDLQMILNGINNYKNPKLTRMLTFNFTMPKKATELKHLQCLEENLTPLEEVLNLAQSKNFHLRPRDLISNINVIVLELKGSETTFMCEYADETATIVEFLNRWITFCQSIISTLT | 1 | 3 | >99 | 0
Fc-IL2-R38N:L40T-T41N:K43T (protein) APTSSSTKKTQLQLEHLLLDLQMILNGINNYKNPKLTNMTNFTFYMPKKATELKHLQCLEEELKPLEEVLNLAQSKNFHLRPRDLISNINVIVLELKGSETTFMCEYADETATIVEFLNRWITFCQSIISTLT | 1 | 3 | >99 | 
Fc-IL2-T41N:K43T-L72N:Q74T (protein) APTSSSTKKTQLQLEHLLLDLQMILNGINNYKNPKLTRMLNFTFYMPKKATELKHLQCLEEELKPLEEVLNNATSKNFHLRPRDLISNINVIVLELKGSETTFMCEYADETATIVEFLNRWITFCQSIISTLT | 2 | 4 | >99 | >99
